PubChem BioAssay AID743121, NCATS | 2013

Test: 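Knock-downs that sensitise breast cancer cells to camptothecin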 (primary screen)
Cell system: MDA-MB-231 cells, a human breast cancer line
Reagent: single siRNA against human genes, 20 nM siRNA (0.8 pmol per well)
Time to read-out: 120 h (drug added 48 h after transfection, read 72 h later)
Treatment: camptothecin 20 nM (about EC30) for 72 h; vehicle 0.1% DMSO in parallel plates
Read-out: 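Cell viability by ATP luminescence (CellTiter-Glo) as % of non-targeting siRNA wells, and the log2 ratio of viability without drug over viability with camptothecin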
Scale: log2 vehicle/camptothecin viability: higher = stronger sensitisation to camptothecin; viability with camptothecin and viability without drug: higher = more viable cells
Rule for the call: 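Each gene scored by redundant siRNA activity (RSA) over its individual siRNA ratios; a gene is called active at p < 0.001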
The deposit covers about 26,000 reagents; below is a part drawn at random. 167 of them (0.63%) count as active. 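Calls are per gene from RSA p-values that are not deposited; an individual active-marked siRNA can sensitise only weakly.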 Reagents against one gene are numbered here.

no.	target gene	reagent	log2 vehicle/camptothecin viability	viability with camptothecin (% of control)	viability without drug (% of control)	call
1	AKAP6	1	-0.159	77	69	inactive
2	AKAP6	2	-0.536	106	72.9	inactive
3	AKAP6	3	-0.163	93.8	83.7	inactive
4	AKAP6	4	-0.306	60.6	49	inactive
5	TP53BP1	1	-0.289	102	83.8	inactive
6	TP53BP1	2	-0.121	96.2	88.5	inactive
7	TP53BP1	3	0.676	44.5	71.1	inactive
8	TP53BP1	4	-0.19	91.1	79.8	inactive
9	BTN3A2	1	-0.313	107	86.3	inactive
10	BTN3A2	2	-0.125	116	107	inactive
11	BTN3A2	3	-0.321	60.5	48.5	inactive
12	BTN3A2	4	-0.159	97.8	87.6	inactive
13	SLC25A23	1	0.0489	86	88.9	inactive
14	SLC25A23	2	0.0883	83.1	88.3	inactive
15	SLC25A23	3	-0.301	45.5	36.9	inactive
16	SLC25A23	4	-0.313	18.7	15.1	inactive
17	ABCC13	1	0.248	59.1	70.2	inactive
18	ABCC13	2	-0.16	60.5	54.1	inactive
19	ABCC13	3	0.0617	65.1	68	inactive
20	RSF1	1	-0.28	68.8	56.7	inactive
21	RSF1	2	-0.361	70.5	54.9	inactive
22	RSF1	3	-0.133	63.7	58.1	inactive
23	RSF1	4	0.484	50.3	70.4	inactive
24	KCNH6	1	-0.0855	97.4	91.8	inactive
25	KCNH6	2	-0.195	34.7	30.3	inactive
26	KCNH6	3	-0.557	45.9	31.2	inactive
27	FBXW8	1	-0.22	72	61.8	inactive
28	FBXW8	2	0.17	51.9	58.3	inactive
29	FBXW8	3	-0.0839	111	104	inactive
30	KIF2B	1	-0.225	60.1	51.4	inactive
31	KIF2B	2	0.833	19.7	35.1	inactive
32	KIF2B	3	-0.481	71.4	51.1	inactive
33	KIF2B	4	-0.117	88.8	81.9	inactive
34	DZANK1	1	0.419	26.3	35.2	inactive
35	DZANK1	2	-0.535	88.1	60.8	inactive
36	DZANK1	3	0.222	75.6	88.1	inactive
37	NUDT9	1	-0.172	74.1	65.8	inactive
38	NUDT9	2	0.397	15.9	20.9	inactive
39	NUDT9	3	0.292	74.5	91.2	inactive
40	NUDT9	4	-0.229	72.2	61.6	inactive
41	IRF2	1	-0.74	60.6	36.3	inactive
42	IRF2	2	0.0454	95.1	98.1	inactive
43	IRF2	3	-0.139	28	25.5	inactive
44	GALK1	1	-0.529	95.9	66.4	inactive
45	GALK1	2	-0.491	90.6	64.5	inactive
46	GALK1	3	-0.467	89.4	64.7	inactive
47	GALK1	4	0.0329	57.8	59.1	inactive

As entered above.
AKAP6 #2, log2 vehicle/camptothecin viability = -0.536
KIF2B #1, viability with camptothecin (% of control): 60.1
